PubChem BioAssay AID504784, Drosophila RNAi Screening Center | 2011

Test: 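Genome-wide knock-down for genes giving too much or too little stored lipid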 (primary screen)
System: Drosophila Kc167 embryonic cells
Reagents: long dsRNA against Drosophila genes, about 250 ng dsRNA per well
Timing: 4 days
Challenge: cells fed 400 µM oleic acid bound to BSA
Read-out: 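Microscope images give a droplet-to-nucleus area ratio, taken as log and converted to a screen-wide B-score; higher values mean greater lipid storage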
Scale: droplet/nuclear area B-score: higher = more stored lipid (overstorage)
The deposit covers about 17,000 reagents; shown is a random part of those with a known target gene and a result. 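Each column is one replicate's B-score; the combined score over replicates was not deposited, so single values may mislead.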 Names joined by + are all predicted targets of the reagent. Reagent sequences are not shown.

gene knocked down | dsRNA | droplet/nuclear area B-score, replicate 1 | droplet/nuclear area B-score, replicate 2 | droplet/nuclear area B-score, replicate 3
CG15048 (retired record) | DRSC19624 | 0.918 | 1.85 | –
ScpX | DRSC03430 | -2.97 | -0.526 | –
CG11353 | DRSC08182 | -0.09 | -1.28 | –
CG7333 | DRSC16229 | -1.46 | -1.53 | –
CG12239 | DRSC17832 | 1.62 | -0.759 | 0.262
mRpL54 (mitochondrial ribosomal protein L54) | DRSC04545 | 4.1 | 3.27 | –
CG12177 | DRSC19437 | -1.91 | 0.159 | -1.19
CG12177 | DRSC21524 | -1.27 | -0.366 | –
eIF2Bepsilon (eukaryotic translation initiation factor 2B subunit epsilon) | DRSC18769 | 1.72 | – | –
CG5913 | DRSC15916 | -0.0739 | 1.02 | –
l(2)efl (lethal (2) essential for life) | DRSC04698 | 1.86 | -0.376 | –
Chchd2 (Coiled-coil-helix-coiled-coil-helix domain containing 2) | DRSC19931 | 0.538 | 1.06 | -0.674
sim (single-minded) | DRSC17054 | 1.26 | -0.108 | –
CG31997 | DRSC17105 | 0.0462 | -0.608 | –
ppk26 (pickpocket 26) | DRSC10991 | -0.251 | -1.26 | –
CG9518 | DRSC20194 | -1.06 | 0.00353 | –
FucTA (alpha1,3-fucosyltransferase A) | DRSC10733 | 0.66 | 1.16 | –
CG11030 | DRSC02120 | -1.67 | 0.327 | –
DCP2 (Decapping protein 2) | DRSC10597 | 3.53 | 2.68 | 1.91
GstE1 (Glutathione S transferase E1) | DRSC07437 | 2.17 | 0.974 | –
Hmgcl (3-Hydroxymethyl-3-methylglutaryl-CoA lyase) | DRSC02051 | 1.59 | -3.13 | –
CG11007 | DRSC06023 | – | -0.457 | –
Su(var)3-7 (Suppressor of variegation 3-7) | DRSC16872 | -0.216 | -0.471 | –
Vha68-1 (Vacuolar H[+] ATPase 68kD subunit 1) | DRSC03470 | -2.22 | -1.65 | –
Tmx3 (Thioredoxin-related transmembrane protein 3) | DRSC10471 | -2.52 | -0.0935 | -1.56
Adck1 (aarF domain containing kinase 1) | DRSC04394 | 1.83 | 0.066 | –
TTLL6B (Tubulin tyrosine ligase-like 6B) | DRSC15932 | -0.262 | -1.68 | –
CG30026 | DRSC05276 | 0.158 | 0.0119 | –
CG10898 | DRSC14279 | 7.49 | -0.0364 | –
CG2336 | DRSC12581 | -0.221 | -0.368 | –
CR18228 (pseudo) | DRSC15317 | 0.398 | -0.587 | –
CG7582 | DRSC16261 | 0.79 | -1.93 | –
Ndc80 | DRSC20221 | 2.33 | 1.07 | -0.473
Ndc80 | DRSC21726 | 2.7 | 0.22 | –
Pgi (Phosphoglucose isomerase) | DRSC07507 | 2.39 | 0.767 | –
Vang (Van Gogh) | DRSC07570 | -0.167 | 0.12 | –
CG8006 | DRSC10949 | -1.36 | 0.0177 | –
CG32100 | DRSC09725 | 1.07 | 0.672 | –
CG32100 | DRSC10331 | -1.12 | -0.17 | –
Task6 (TWIK-related acid-sensitive K[+] channel 6) | DRSC16530 | 0.339 | -0.0349 | –
asRNA:CR31084 (antisense RNA:CR31084) | DRSC21649 | 0.632 | 1.63 | –
Nct (Nicastrin) | DRSC16172 | -1.04 | -0.0126 | –
CG6959 | DRSC16151 | 1.54 | 2.94 | –
qtc (quick-to-court) | DRSC02364 | 0.926 | 1.48 | –
qtc (quick-to-court) | DRSC02365 | -0.657 | 0.814 | –
CG17672 | DRSC09230 | -0.707 | -0.373 | –
CG17672 | DRSC10278 | -1.17 | -0.595 | –
CG6686 | DRSC02979 | -2.93 | -2.06 | –
CG34434 | DRSC18134 | -1.05 | -0.0228 | –
BORCS5 (BLOC-1 related complex subunit 5) | DRSC19427 | 0.137 | 0.672 | 0.235
PolZ1 (DNA polymerase zeta subunit 1) | DRSC06800 | -0.0351 | -2.12 | –
unc80 (uncoordinated 80) | DRSC15329 | -0.602 | 0.372 | –
Hil (Hillarin) | DRSC05989 | -0.31 | -0.657 | –
Hil (Hillarin) | DRSC06395 | -0.33 | -0.0274 | –
ng1 (new glue 1) | DRSC18802 | -0.617 | -0.948 | –
XRCC1 | DRSC18729 | -1.69 | 1.26 | -0.83
Dus2 (Dihydrouridine synthase 2) | DRSC19591 | 0.0201 | -1.33 | -0.7
Lamtor5 (Late endosomal/lysosomal adaptor, MAPK and MTOR activator 5) | DRSC18491 | -0.217 | -0.187 | –
Jhbp5 (Juvenile hormone binding protein 5) | DRSC14240 | 0.222 | 0.108 | –
ND2 (retired record) | DRSC21274 | 0.226 | -0.145 | –
CG4686 | DRSC15622 | -0.372 | -0.395 | –
CG11211 | DRSC04851 | 0.522 | 1.23 | –
Taf9 (TBP-associated factor 9) | DRSC20326 | 0.421 | 2.66 | –
CG12716 | DRSC19493 | -2.79 | 0.013 | 1.72
Fpgs2 (Folylpolyglutamate synthase 2) | DRSC00600 | 0.517 | -1.24 | –
CG32137 | DRSC10271 | 0.232 | 0.792 | –
CG32137 | DRSC10272 | 1.8 | 3.6 | –
Trf4-2 (Topoisomerase related function 4-2) | DRSC15237 | 0.131 | -0.126 | –

Only “droplet/nuclear area B-score, replicate 1” (17 entries from above):
PolZ1 (DNA polymerase zeta subunit 1) [DRSC06800]	-0.0351
unc80 (uncoordinated 80) [DRSC15329]	-0.602
Hil (Hillarin) [DRSC05989]	-0.31
Hil (Hillarin) [DRSC06395]	-0.33
ng1 (new glue 1) [DRSC18802]	-0.617
XRCC1 [DRSC18729]	-1.69
Dus2 (Dihydrouridine synthase 2) [DRSC19591]	0.0201
Lamtor5 (Late endosomal/lysosomal adaptor, MAPK and MTOR activator 5) [DRSC18491]	-0.217
Jhbp5 (Juvenile hormone binding protein 5) [DRSC14240]	0.222
ND2 (retired record) [DRSC21274]	0.226
CG4686 [DRSC15622]	-0.372
CG11211 [DRSC04851]	0.522
Taf9 (TBP-associated factor 9) [DRSC20326]	0.421
CG12716 [DRSC19493]	-2.79
Fpgs2 (Folylpolyglutamate synthase 2) [DRSC00600]	0.517
CG32137 [DRSC10271]	0.232
CG32137 [DRSC10272]	1.8

Further reagents:
gene knocked down | dsRNA | droplet/nuclear area B-score, replicate 1 | droplet/nuclear area B-score, replicate 2 | droplet/nuclear area B-score, replicate 3
AgmNAT (Agmatine N-acetyltransferase) | DRSC18072 | -0.291 | -1.32 | –
Pdxk (Pyridoxal kinase) | DRSC10419 | 0.368 | 0.0478 | –
fred (friend of echinoid) | DRSC00349 | 0.0117 | 0.473 | –
fred (friend of echinoid) | DRSC00599 | -1.49 | -1.61 | 0.0752
fred (friend of echinoid) | DRSC00601 | -0.334 | -0.492 | –
fred (friend of echinoid) | DRSC00602 | 0.819 | 1.8 | –
fred (friend of echinoid) | DRSC21906 | 2.43 | 2.39 | –
blow (blown fuse) | DRSC07586 | -0.41 | 0.107 | –
kz (kurz) | DRSC18786 | -1.38 | 0.171 | –
CG15643 | DRSC19679 | 0.545 | -0.183 | –
CG30031 + deltaTry + gammaTry | DRSC07622 | -1.26 | 0.172 | –
bard | DRSC14796 | -0.673 | 0.162 | –
ND6 (retired record) | DRSC21271 | -1.88 | 1.31 | -0.000529
Naa35 (N(alpha)-acetyltransferase 35) | DRSC04447 | 0.804 | 2.23 | –
CG3744 | DRSC15511 | -0.373 | 2.37 | –
CG2962 | DRSC18247 | -0.0484 | -0.582 | -3.11
CG17211 | DRSC02587 | -0.377 | 0.64 | –
CG12105 | DRSC08255 | -0.768 | – | –
smash (smallish) | DRSC12139 | -0.802 | 0.684 | 0.381
smash (smallish) | DRSC12239 | 1 | -0.622 | –
stil (stand still) | DRSC07699 | -2.04 | 0.395 | –
CG8300 | DRSC18426 | 0.814 | 0.772 | 0.0589
CG8300 | DRSC23231 | 0.0209 | 0.574 | –
shakB (shaking B) | DRSC20585 | -1.14 | -0.942 | –
shakB (shaking B) | DRSC22817 | 0.771 | 0.588 | –
HisCl1 (Histamine-gated chloride channel subunit 1) | DRSC14945 | 0.745 | -4.97 | –
CanB2 (Calcineurin B2) | DRSC07355 | -1.72 | -0.629 | –
CG9312 | DRSC16471 | 8.39 | 1.4 | –
Hr83 (Hormone receptor 83) | DRSC12521 | -0.483 | 0.289 | –
Tom (Twin of m4) | DRSC11306 | 0.991 | -0.943 | -0.316
Trxr2 (Thioredoxin reductase 2) | DRSC11900 | -0.23 | – | –
CG4984 + CG4975 | DRSC06907 | -0.364 | 0.338 | –
CG4984 + CG4975 | DRSC06908 | -0.966 | 2.14 | –
CG10232 | DRSC14218 | 1.36 | 0.778 | –
CG14154 | DRSC10156 | 0.716 | -0.418 | –
CG7519 | DRSC11834 | 0.309 | 1.28 | –
shd (shade) | DRSC11129 | -1.24 | -0.0554 | –
